The record followed here is article PMC6478693.

By UniProt entry, the sequences of proteins in these tests, tags left out.
UniProt P15056: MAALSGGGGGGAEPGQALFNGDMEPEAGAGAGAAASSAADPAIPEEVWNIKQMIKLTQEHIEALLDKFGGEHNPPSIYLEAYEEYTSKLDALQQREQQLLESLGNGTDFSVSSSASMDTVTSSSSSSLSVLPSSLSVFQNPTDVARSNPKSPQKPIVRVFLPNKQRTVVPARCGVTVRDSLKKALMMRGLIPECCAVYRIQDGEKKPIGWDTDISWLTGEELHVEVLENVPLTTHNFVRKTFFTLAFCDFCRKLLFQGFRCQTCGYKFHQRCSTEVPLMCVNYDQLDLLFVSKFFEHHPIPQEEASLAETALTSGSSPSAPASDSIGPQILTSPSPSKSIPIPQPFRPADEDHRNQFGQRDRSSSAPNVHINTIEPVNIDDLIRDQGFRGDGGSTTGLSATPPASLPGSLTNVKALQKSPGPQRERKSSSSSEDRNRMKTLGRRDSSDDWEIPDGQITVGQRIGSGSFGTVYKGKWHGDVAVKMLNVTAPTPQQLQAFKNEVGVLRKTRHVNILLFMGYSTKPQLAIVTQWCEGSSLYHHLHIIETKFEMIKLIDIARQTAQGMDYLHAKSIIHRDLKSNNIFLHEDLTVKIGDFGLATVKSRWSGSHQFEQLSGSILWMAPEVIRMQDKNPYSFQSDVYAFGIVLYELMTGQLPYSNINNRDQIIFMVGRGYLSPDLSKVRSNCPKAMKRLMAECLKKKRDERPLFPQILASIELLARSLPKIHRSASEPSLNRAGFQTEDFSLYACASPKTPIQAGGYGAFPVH

This assay addresses Flag-BRAF (wild type) (UniProt P15056). Description: co-IP; in vitro: immunopurified Flag-BRAF proteins, unmodified or after in vitro ubiquitination, incubated with the partner; anti-Flag immunoprecipitates blotted (Fig. 6a, b, d; Supplementary Fig. 9a-f, i taken as the same comparison).

Results are given in words; binding and its absence hold for the method and conditions named. In cells and extracts the contact can be indirect. Some entries that bind do so weakly or less than the wild type.

B1: KSR1 (Supplementary Fig. 9e) (protein, UniProt Q8IVT5 1-923)
chain: MDRAALRAAAMGEKKEGGGGGDAAAAEGGAGAAASRALQQCGQLQKLIDISIGSLRGLRTKCAVSNDLTQQEIRTLEAKLVRYICKQRQCKLSVAPGERTPELNSYPRFSDWLYTFNVRPEVVQEIPRDLTLDALLEMNEAKVKETLRRCGASGDECGRLQYALTCLRKVTGLGGEHKEDSSWSSLDARRESGSGPSTDTLSAASLPWPPGSSQLGRAGNSAQGPRSISVSALPASDSPTPSFSEGLSDTCIPLHASGRLTPRALHSFITPPTTPQLRRHTKLKPPRTPPPPSRKVFQLLPSFPTLTRSKSHESQLGNRIDDVSSMRFDLSHGSPQMVRRDIGLSVTHRFSTKSWLSQVCHVCQKSMIFGVKCKHCRLKCHNKCTKEAPACRISFLPLTRLRRTESVPSDINNPVDRAAEPHFGTLPKALTKKEHPPAMNHLDSSSNPSSTTSSTPSSPAPFPTSSNPSSATTPPNPSPGQRDSRFNFPAAYFIHHRQQFIFPVPSAGHCWKCLLIAESLKENAFNISAFAHAAPLPEAADGTRLDDQPKADVLEAHEAEAEEPEAGKSEAEDDEDEVDDLPSSRRPWRGPISRKASQTSVYLQEWDIPFEQVELGEPIGQGRWGRVHRGRWHGEVAIRLLEMDGHNQDHLKLFKKEVMNYRQTRHENVVLFMGACMNPPHLAIITSFCKGRTLHSFVRDPKTSLDINKTRQIAQEIIKGMGYLHAKGIVHKDLKSKNVFYDNGKVVITDFGLFGISGVVREGRRENQLKLSHDWLCYLAPEIVREMTPGKDEDQLPFSKAADVYAFGTVWYELQARDWPLKNQAAEASIWQIGSGEGMKRVLTSVSLGKEVSEILSACWAFDLQERPSFSLLMDMLEKLPKLNRRLSHPGHFWKSADINSSKVVPRFERFGLGVLESSNPKM
For the molecule B1, the binding result was “binds”.
